Measurements taken from PubChem BioAssay AID1794747 (DTP/NCI, 2022).
“And” between values parts separate entries of the source, which are not always exact repeats. Equal values may be shown once. Further values from the same series stand in other lists.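 The endpoint reported here, percent growth, reads 100 for growth as untreated, 0 for no net growth and -100 for all cells dead.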

Test system: SNB-78
Test: NCI-60 one-dose screen, 48 h (100 = growth as untreated, 0 = no growth, -100 = all killed)
Conditions: 2.5 mM
Protocol: Growth inhibition of the SNB-78 human tumor cell line is measured as a screen for anti-cancer activity. Cells are grown in 96 well plates and exposed to the test compound for 48 hours. Compounds are tested at a single concentration, which is 10^-5 M for most compounds. The reported endpoint is percent growth (GI% or GIPRCNT), where numbers from 0 - 100% represent growth inhibition, and numbers from -100% - 0 represent cell death. For example, a value of 40 represents 60% growth inhibition. A value of 0 means no net growth occurred over the course of the experiment. A value of -40 indicates 40% of cells at the beginning of the experiment died by the end of the experiment. A value of -100 means all cells are dead at the end of the experiment.
NCI-60 Human Tumor Cell Lines Screen was performed using the standard one-dose NCI protocol, which is described in more detail at https://dtp.cancer.gov/discovery_development/nci-60/default.htm.
Compounds with GIPRCNT values below 10 were considered active. Activity score was based on GIPRCNT using the following formula: […]
Score is 0 for GIPRCNT values of 100 or above, 50 for GIPRCNT values of 0, and 100 for GIPRCNT values of -100.

With `O=c1[nH]cc(F)c(=O)[nH]1` the growth was 48.3% and 35.2%.
